# Measurements reported in PMC7862700.
# Protein sequences, listed by entry. Tags and fused reporters are not part of them. Lines headed by an entry give the natural chain unless they say otherwise; changes in a name come on top.
# UniProt Q00613: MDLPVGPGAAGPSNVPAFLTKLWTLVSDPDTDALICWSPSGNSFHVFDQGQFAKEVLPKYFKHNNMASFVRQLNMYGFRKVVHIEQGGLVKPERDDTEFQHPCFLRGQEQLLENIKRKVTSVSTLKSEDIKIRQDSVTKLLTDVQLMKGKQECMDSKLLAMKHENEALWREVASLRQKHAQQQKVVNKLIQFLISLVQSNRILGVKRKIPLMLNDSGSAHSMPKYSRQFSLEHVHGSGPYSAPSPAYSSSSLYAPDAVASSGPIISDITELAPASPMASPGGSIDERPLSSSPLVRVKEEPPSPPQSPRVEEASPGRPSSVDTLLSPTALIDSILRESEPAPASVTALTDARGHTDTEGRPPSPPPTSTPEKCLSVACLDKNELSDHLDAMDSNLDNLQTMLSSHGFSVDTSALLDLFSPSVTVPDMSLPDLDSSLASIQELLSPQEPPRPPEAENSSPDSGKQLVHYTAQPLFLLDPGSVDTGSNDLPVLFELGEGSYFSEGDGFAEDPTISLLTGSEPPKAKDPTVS
# The list shows a part of the results, in another mix than the full data. For part of these data: At the low end of the ranking the order means little. The list shows a part of the results. For part of these data: The source does not settle which construct or isoform was used.
# Experiments:
# HSF1 = HSF1 (UniProt Q00613); test: DAPPL (digital affinity profiling via proximity ligation, sequencing); conditions: 10 mM Tris-HCl pH 7.5, 50 mM NaCl, 1 mM DTT, 4% glycerol, room temperature, 30 min; GST-TFs on glutathione beads, 16-mer random dsDNA library, 0.1% …; high values mean tight binding; double strand, one strand shown; scale: fold enrichment (6-mer frequency, TF over GST control)
# ELF2 = target: T1, ELF2 (UniProt Q15723); test: as above; conditions: 10 mM Tris-HCl pH 7.5, 50 mM NaCl, 1 mM DTT, 4% glycerol, room temperature, 30 min; GST-TFs on glutathione beads, 16-mer random dsDNA library, 0.1% …; high values mean tight binding; double strand, one strand shown; scale: fold enrichment (6-mer frequency, TF over GST control)
# T1 sequence: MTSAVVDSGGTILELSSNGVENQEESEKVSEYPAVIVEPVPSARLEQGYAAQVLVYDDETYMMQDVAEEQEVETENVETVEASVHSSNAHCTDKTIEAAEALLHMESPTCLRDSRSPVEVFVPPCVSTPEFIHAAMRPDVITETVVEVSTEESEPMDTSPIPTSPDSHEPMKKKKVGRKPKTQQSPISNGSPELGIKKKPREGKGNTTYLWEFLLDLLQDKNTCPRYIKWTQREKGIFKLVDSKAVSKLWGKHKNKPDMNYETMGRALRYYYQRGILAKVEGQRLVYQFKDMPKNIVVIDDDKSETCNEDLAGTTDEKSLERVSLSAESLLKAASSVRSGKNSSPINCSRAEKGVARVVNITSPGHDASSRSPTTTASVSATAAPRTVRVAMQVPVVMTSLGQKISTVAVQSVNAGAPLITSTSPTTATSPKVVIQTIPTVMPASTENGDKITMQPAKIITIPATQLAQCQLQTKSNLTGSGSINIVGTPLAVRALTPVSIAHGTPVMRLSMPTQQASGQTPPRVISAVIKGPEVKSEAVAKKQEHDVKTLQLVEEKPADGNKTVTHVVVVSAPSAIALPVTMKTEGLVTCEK
sequence,measurement,setting,value
TTCACG,binding signal,HSF1,1.51
same,binding signal,ELF2,1.38
AGTCCC,binding signal,HSF1,0.878
same,binding signal,ELF2,1.03
TAGGTA,binding signal,HSF1,1.03
same,binding signal,ELF2,0.954
AAAACC,binding signal,HSF1,1.09
same,binding signal,ELF2,1.2
TTATTA,binding signal,HSF1,1.75
same,binding signal,ELF2,1.13
GAAAAC,binding signal,HSF1,1.08
same,binding signal,ELF2,1.08
GCCCTG,binding signal,HSF1,0.795
same,binding signal,ELF2,0.985
GTAGCA,binding signal,HSF1,0.866
same,binding signal,ELF2,1.1
ACTACG,binding signal,HSF1,1.09
same,binding signal,ELF2,1.27
CCTTAG,binding signal,HSF1,1.2
same,binding signal,ELF2,1.18
TGCACA,binding signal,HSF1,0.883
same,binding signal,ELF2,1.07
TGATAA,binding signal,HSF1,1.2
same,binding signal,ELF2,0.997
CTTTCG,binding signal,HSF1,1.65
same,binding signal,ELF2,1.22
CAGTAT,binding signal,HSF1,0.927
same,binding signal,ELF2,0.921
CAACTT,binding signal,HSF1,1.22
same,binding signal,ELF2,1.71
ATGGCA,binding signal,HSF1,1.1
same,binding signal,ELF2,1.22
ACGCCT,binding signal,HSF1,1.15
same,binding signal,ELF2,1.13
CATCAA,binding signal,HSF1,0.871
same,binding signal,ELF2,0.928
TTGGTC,binding signal,HSF1,0.946
same,binding signal,ELF2,0.979
AGATAA,binding signal,HSF1,1.68
same,binding signal,ELF2,1.02
ATCCTC,binding signal,HSF1,1.67
same,binding signal,ELF2,1.5
TTGACG,binding signal,HSF1,0.909
same,binding signal,ELF2,1.02
GTCCCC,binding signal,HSF1,0.889
same,binding signal,ELF2,1.09
AATCTT,binding signal,HSF1,2.17
same,binding signal,ELF2,1.33
CCACCA,binding signal,HSF1,0.876
same,binding signal,ELF2,0.951
ACCCCA,binding signal,HSF1,0.9
same,binding signal,ELF2,1.06
TACCAT,binding signal,HSF1,1.14
same,binding signal,ELF2,1.09
ACCTAT,binding signal,HSF1,1.05
same,binding signal,ELF2,1.11
CCTTGC,binding signal,HSF1,1.04
same,binding signal,ELF2,1.26
TAGAAT,binding signal,HSF1,3.07
same,binding signal,ELF2,1.09
TGTCGC,binding signal,HSF1,0.683
same,binding signal,ELF2,1
CTTTGC,binding signal,HSF1,1.25
same,binding signal,ELF2,1.24
CCGCTG,binding signal,HSF1,0.76
same,binding signal,ELF2,1.01
CTGTGC,binding signal,HSF1,0.898
same,binding signal,ELF2,1.08
CGTACG,binding signal,HSF1,0.892
same,binding signal,ELF2,1.01
GAAAGG,binding signal,HSF1,0.957
same,binding signal,ELF2,0.923
GGACTT,binding signal,HSF1,0.973
same,binding signal,ELF2,1.27
GTTTGC,binding signal,HSF1,0.856
same,binding signal,ELF2,1.04
TAAGGA,binding signal,HSF1,0.944
same,binding signal,ELF2,0.985
CACCTA,binding signal,HSF1,0.93
same,binding signal,ELF2,0.937
CATGGT,binding signal,HSF1,0.906
same,binding signal,ELF2,1.13
ACACGC,binding signal,HSF1,0.912
same,binding signal,ELF2,1.06
CCCTGA,binding signal,HSF1,0.951
same,binding signal,ELF2,0.993
GTGTTG,binding signal,HSF1,0.709
same,binding signal,ELF2,0.898
TTGTAG,binding signal,HSF1,1.23
same,binding signal,ELF2,1.06
GATAGT,binding signal,HSF1,0.783
same,binding signal,ELF2,0.823
TTACAG,binding signal,HSF1,1.44
same,binding signal,ELF2,1.14
CACAAC,binding signal,HSF1,0.896
same,binding signal,ELF2,1.22
AAATCA,binding signal,HSF1,1.17
same,binding signal,ELF2,1.23
TTTGTT,binding signal,HSF1,1.3
same,binding signal,ELF2,1.27
AGCAAT,binding signal,HSF1,1.1
same,binding signal,ELF2,1.11
AGTTTG,binding signal,HSF1,0.798
same,binding signal,ELF2,0.932
CTCTCG,binding signal,HSF1,1.99
same,binding signal,ELF2,1.32
AACGAT,binding signal,HSF1,1.32
same,binding signal,ELF2,1.19
TGGCCC,binding signal,HSF1,0.879
same,binding signal,ELF2,0.996
ATGCGT,binding signal,HSF1,0.909
same,binding signal,ELF2,0.995
AGTCTT,binding signal,HSF1,0.981
same,binding signal,ELF2,0.961
TAGCTG,binding signal,HSF1,1.23
same,binding signal,ELF2,1.11
GGCGTT,binding signal,HSF1,0.832
same,binding signal,ELF2,0.979
ACCGCA,binding signal,HSF1,0.928
same,binding signal,ELF2,1.17
AGTTAC,binding signal,HSF1,0.731
same,binding signal,ELF2,0.971
TCATCT,binding signal,HSF1,1.44
same,binding signal,ELF2,1.11
TCCCGG,binding signal,HSF1,1.37
same,binding signal,ELF2,2.76
CATTAG,binding signal,HSF1,1.07
same,binding signal,ELF2,0.938
TATGAC,binding signal,HSF1,1.18
same,binding signal,ELF2,1.2
GACGAC,binding signal,HSF1,0.877
same,binding signal,ELF2,0.937
ATCACA,binding signal,HSF1,0.97
same,binding signal,ELF2,1.06
TGGTTG,binding signal,HSF1,0.793
same,binding signal,ELF2,0.943
GATACC,binding signal,HSF1,0.732
same,binding signal,ELF2,0.932
CTGAGG,binding signal,HSF1,0.694
same,binding signal,ELF2,0.826
GCCCAA,binding signal,HSF1,0.961
same,binding signal,ELF2,1.03
TTGAGC,binding signal,HSF1,1.03
same,binding signal,ELF2,1
TACTCA,binding signal,HSF1,1.12
same,binding signal,ELF2,1.13
CTAAAT,binding signal,HSF1,1.59
same,binding signal,ELF2,1.31
GTCACC,binding signal,HSF1,0.662
same,binding signal,ELF2,0.892
ACTCTG,binding signal,HSF1,1.12
same,binding signal,ELF2,1.21
CATCGC,binding signal,HSF1,0.988
same,binding signal,ELF2,1.03
ACCAAA,binding signal,HSF1,0.899
same,binding signal,ELF2,0.993
AACGCC,binding signal,HSF1,0.963
same,binding signal,ELF2,1.03
TACCTA,binding signal,HSF1,1.28
same,binding signal,ELF2,1.15
TTGTTG,binding signal,HSF1,0.998
same,binding signal,ELF2,1.08
CCTCGC,binding signal,HSF1,1.36
same,binding signal,ELF2,1.37
TTGATC,binding signal,HSF1,1.48
same,binding signal,ELF2,1.17
CATCAC,binding signal,HSF1,0.899
same,binding signal,ELF2,1.09
TCATTG,binding signal,HSF1,0.886
same,binding signal,ELF2,0.911
GCCAAC,binding signal,HSF1,0.733
same,binding signal,ELF2,0.863
CATGAC,binding signal,HSF1,0.966
same,binding signal,ELF2,1.13
GTATAA,binding signal,HSF1,1.16
same,binding signal,ELF2,1.09
TGACGG,binding signal,HSF1,0.815
same,binding signal,ELF2,0.917
CCTTCT,binding signal,HSF1,2.98
same,binding signal,ELF2,1.6
TGCATA,binding signal,HSF1,0.979
same,binding signal,ELF2,1.09
ACCTCT,binding signal,HSF1,1.18
same,binding signal,ELF2,1.25
ATTTGT,binding signal,HSF1,1.33
same,binding signal,ELF2,1.31
TAAGTT,binding signal,HSF1,1.45
same,binding signal,ELF2,1.38
AAACAG,binding signal,HSF1,0.832
same,binding signal,ELF2,1
CTAGCA,binding signal,HSF1,2.11
same,binding signal,ELF2,1.18
GGTCTA,binding signal,HSF1,0.953
same,binding signal,ELF2,1.03
ATCGCG,binding signal,HSF1,1.09
same,binding signal,ELF2,0.914
GCCTGA,binding signal,HSF1,0.974
same,binding signal,ELF2,0.943
TAGTGC,binding signal,HSF1,1.02
same,binding signal,ELF2,0.989
CGTATC,binding signal,HSF1,0.926
same,binding signal,ELF2,1.22
TTTTAG,binding signal,HSF1,1.19
same,binding signal,ELF2,1.13
GTGTTT,binding signal,HSF1,0.886
same,binding signal,ELF2,1.18
CGTCGC,binding signal,HSF1,0.914
same,binding signal,ELF2,1.13
AAAGGC,binding signal,HSF1,0.918
same,binding signal,ELF2,0.94
CCGGCC,binding signal,HSF1,0.767
same,binding signal,ELF2,1.16
TAGGAA,binding signal,HSF1,1.11
same,binding signal,ELF2,1.38
AAGTGT,binding signal,HSF1,0.996
same,binding signal,ELF2,1.37
TCCCCG,binding signal,HSF1,1.16
same,binding signal,ELF2,1.2
GGTTTG,binding signal,HSF1,0.967
same,binding signal,ELF2,1.15
GGACTC,binding signal,HSF1,0.885
same,binding signal,ELF2,0.984
CCGACT,binding signal,HSF1,1.29
same,binding signal,ELF2,1.44
ACGGTA,binding signal,HSF1,0.85
same,binding signal,ELF2,0.959
TTCGCC,binding signal,HSF1,1.14
same,binding signal,ELF2,1.1

# Four entries from above, with bars between the fields.
sequence | measurement | setting | value
ACGCCT | binding signal | ELF2 | 1.13
CATCAA | binding signal | HSF1 | 0.871
same | binding signal | ELF2 | 0.928
TTGGTC | binding signal | HSF1 | 0.946

# Taken from the listing (3 entries):
sequence,measurement,setting,value
TAGAAT,binding signal,ELF2,1.09
TGTCGC,binding signal,HSF1,0.683
same,binding signal,ELF2,1

# Part of the list above, bar-delimited.
sequence | measurement | setting | value
GATAGT | binding signal | HSF1 | 0.783
same | binding signal | ELF2 | 0.823
TTACAG | binding signal | HSF1 | 1.44
same | binding signal | ELF2 | 1.14
CACAAC | binding signal | HSF1 | 0.896
